The supplement of paper PMC10849652
Some of the results follow.

Protein sequences, listed by entry. Tags and fused reporters are not part of them. Lines headed by an entry give the natural chain unless they say otherwise; changes in a name come on top.
UniProt P32121, whole entry, looked up: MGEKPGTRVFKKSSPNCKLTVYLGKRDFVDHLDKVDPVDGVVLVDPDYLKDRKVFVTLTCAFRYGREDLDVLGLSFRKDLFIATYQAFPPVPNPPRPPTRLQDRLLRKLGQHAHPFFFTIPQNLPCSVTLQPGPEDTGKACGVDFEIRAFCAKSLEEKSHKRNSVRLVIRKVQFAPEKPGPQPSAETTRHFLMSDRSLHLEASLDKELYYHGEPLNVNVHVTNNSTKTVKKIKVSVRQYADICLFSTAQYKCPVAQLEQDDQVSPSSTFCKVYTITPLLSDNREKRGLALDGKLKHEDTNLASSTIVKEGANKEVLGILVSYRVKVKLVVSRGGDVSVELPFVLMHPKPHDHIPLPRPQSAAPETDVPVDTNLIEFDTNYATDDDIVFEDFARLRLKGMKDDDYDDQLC
UniProt P56378: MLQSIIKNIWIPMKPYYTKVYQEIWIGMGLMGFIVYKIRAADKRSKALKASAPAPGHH
UniProt P25705: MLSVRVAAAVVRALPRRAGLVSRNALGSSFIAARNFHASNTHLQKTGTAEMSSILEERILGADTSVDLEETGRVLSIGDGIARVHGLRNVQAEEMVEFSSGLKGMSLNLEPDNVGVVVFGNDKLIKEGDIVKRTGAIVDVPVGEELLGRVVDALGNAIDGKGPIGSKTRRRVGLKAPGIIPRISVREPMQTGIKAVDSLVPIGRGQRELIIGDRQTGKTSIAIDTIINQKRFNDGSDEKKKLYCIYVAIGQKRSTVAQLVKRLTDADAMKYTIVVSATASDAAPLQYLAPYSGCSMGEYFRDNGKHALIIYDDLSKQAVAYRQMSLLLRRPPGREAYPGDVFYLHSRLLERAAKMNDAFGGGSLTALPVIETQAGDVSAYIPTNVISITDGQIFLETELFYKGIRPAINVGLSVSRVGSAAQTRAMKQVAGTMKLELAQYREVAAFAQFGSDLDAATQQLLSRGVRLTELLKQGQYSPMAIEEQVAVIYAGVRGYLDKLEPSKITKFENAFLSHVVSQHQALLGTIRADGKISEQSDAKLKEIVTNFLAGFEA
UniProt Q13315: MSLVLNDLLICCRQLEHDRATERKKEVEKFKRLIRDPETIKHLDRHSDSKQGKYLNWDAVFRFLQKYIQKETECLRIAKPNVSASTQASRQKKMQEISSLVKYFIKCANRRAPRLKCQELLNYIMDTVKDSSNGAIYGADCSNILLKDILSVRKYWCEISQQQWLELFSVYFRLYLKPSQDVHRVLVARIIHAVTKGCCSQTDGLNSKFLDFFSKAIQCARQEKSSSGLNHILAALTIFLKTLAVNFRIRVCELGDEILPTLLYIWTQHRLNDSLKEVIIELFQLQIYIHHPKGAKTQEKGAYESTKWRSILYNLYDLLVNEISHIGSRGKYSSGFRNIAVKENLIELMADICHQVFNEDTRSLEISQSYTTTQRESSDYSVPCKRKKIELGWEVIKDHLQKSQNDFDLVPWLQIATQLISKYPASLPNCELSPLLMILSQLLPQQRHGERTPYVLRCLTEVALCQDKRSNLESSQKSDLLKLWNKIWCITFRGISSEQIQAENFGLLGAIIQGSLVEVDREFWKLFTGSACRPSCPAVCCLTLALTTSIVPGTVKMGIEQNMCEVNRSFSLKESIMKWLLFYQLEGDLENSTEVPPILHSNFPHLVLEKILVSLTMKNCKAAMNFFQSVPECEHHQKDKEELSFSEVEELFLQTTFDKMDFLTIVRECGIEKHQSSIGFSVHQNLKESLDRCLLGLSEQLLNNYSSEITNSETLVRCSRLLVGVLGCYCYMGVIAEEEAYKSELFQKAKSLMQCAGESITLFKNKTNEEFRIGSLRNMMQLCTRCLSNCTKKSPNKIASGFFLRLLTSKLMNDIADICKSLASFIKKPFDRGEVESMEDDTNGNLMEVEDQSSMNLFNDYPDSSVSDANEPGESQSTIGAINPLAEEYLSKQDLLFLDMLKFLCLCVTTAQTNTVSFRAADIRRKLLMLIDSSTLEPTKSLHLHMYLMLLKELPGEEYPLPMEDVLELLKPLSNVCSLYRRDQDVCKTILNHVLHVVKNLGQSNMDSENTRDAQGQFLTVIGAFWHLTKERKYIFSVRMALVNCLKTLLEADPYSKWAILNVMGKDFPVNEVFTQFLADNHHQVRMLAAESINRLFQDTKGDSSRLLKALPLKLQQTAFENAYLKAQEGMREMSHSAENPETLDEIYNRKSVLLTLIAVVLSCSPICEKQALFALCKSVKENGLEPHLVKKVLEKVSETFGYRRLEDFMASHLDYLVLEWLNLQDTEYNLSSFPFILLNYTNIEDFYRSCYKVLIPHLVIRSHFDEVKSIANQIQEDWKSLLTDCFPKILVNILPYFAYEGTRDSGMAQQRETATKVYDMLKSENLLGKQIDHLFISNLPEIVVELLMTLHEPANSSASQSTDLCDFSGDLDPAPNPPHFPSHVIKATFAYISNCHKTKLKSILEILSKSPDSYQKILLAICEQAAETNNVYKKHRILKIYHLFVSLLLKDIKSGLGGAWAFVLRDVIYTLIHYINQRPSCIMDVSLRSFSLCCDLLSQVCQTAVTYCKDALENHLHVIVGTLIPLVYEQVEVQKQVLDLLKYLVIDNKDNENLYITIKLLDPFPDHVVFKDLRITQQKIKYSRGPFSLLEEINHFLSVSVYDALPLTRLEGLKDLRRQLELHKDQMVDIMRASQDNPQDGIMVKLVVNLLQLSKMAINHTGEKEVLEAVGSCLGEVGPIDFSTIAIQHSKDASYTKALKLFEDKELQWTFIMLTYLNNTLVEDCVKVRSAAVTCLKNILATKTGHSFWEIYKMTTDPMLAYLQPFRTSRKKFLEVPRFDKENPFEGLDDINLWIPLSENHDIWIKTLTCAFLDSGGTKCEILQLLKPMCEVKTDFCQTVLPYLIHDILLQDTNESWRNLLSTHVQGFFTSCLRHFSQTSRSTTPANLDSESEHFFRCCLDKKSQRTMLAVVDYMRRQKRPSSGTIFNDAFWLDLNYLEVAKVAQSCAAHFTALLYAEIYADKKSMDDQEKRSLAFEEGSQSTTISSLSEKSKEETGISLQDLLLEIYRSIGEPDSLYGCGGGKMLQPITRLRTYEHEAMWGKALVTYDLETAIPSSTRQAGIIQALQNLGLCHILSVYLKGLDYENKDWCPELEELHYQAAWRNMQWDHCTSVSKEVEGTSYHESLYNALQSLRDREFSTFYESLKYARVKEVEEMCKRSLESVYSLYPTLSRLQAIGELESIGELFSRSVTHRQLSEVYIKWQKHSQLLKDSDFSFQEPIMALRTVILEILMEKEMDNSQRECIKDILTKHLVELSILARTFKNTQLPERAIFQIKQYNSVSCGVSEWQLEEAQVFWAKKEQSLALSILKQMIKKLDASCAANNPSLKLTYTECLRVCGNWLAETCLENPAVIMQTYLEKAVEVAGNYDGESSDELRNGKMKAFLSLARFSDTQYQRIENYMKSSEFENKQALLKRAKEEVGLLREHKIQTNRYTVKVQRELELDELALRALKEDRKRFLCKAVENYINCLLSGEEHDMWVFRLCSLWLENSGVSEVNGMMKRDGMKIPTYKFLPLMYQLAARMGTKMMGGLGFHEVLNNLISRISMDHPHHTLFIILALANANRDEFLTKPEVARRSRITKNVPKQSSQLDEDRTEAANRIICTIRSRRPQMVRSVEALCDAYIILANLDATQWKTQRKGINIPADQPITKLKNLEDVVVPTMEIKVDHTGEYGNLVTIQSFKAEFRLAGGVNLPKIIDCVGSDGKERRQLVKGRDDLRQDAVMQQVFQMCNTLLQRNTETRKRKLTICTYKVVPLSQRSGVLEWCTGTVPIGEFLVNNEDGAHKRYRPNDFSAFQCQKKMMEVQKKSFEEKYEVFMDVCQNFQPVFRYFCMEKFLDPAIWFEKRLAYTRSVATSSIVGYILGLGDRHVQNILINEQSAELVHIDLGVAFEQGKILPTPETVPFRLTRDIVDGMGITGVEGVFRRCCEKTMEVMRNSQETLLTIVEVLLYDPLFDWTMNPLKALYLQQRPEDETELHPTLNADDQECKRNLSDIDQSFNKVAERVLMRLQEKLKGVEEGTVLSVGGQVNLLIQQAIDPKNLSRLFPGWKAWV
UniProt Q9NXU5: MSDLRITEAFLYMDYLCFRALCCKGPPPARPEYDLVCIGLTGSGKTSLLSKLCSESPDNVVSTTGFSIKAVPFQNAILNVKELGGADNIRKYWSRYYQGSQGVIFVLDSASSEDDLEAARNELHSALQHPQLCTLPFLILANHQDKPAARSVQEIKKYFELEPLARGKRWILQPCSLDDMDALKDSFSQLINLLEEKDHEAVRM
UniProt Q8N6S5: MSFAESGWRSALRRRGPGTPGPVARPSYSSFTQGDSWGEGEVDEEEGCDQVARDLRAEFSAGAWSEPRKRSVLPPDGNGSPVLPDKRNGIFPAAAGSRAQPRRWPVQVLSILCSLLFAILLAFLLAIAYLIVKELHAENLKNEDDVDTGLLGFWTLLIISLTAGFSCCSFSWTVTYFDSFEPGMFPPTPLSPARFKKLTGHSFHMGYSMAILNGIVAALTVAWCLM
UniProt Q6NXE6: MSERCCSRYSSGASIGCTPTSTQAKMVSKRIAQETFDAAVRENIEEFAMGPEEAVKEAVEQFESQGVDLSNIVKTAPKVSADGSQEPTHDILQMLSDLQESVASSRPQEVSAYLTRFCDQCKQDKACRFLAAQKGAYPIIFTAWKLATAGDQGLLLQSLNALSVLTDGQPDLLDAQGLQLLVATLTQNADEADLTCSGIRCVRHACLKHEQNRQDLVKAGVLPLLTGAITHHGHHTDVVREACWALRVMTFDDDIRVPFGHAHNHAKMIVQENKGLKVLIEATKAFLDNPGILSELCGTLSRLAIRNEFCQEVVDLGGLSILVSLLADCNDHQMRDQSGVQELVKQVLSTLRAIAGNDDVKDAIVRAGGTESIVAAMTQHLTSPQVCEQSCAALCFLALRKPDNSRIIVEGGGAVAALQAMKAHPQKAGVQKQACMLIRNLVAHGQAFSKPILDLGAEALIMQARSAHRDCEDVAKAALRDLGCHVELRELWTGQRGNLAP
UniProt Q9Y2G3: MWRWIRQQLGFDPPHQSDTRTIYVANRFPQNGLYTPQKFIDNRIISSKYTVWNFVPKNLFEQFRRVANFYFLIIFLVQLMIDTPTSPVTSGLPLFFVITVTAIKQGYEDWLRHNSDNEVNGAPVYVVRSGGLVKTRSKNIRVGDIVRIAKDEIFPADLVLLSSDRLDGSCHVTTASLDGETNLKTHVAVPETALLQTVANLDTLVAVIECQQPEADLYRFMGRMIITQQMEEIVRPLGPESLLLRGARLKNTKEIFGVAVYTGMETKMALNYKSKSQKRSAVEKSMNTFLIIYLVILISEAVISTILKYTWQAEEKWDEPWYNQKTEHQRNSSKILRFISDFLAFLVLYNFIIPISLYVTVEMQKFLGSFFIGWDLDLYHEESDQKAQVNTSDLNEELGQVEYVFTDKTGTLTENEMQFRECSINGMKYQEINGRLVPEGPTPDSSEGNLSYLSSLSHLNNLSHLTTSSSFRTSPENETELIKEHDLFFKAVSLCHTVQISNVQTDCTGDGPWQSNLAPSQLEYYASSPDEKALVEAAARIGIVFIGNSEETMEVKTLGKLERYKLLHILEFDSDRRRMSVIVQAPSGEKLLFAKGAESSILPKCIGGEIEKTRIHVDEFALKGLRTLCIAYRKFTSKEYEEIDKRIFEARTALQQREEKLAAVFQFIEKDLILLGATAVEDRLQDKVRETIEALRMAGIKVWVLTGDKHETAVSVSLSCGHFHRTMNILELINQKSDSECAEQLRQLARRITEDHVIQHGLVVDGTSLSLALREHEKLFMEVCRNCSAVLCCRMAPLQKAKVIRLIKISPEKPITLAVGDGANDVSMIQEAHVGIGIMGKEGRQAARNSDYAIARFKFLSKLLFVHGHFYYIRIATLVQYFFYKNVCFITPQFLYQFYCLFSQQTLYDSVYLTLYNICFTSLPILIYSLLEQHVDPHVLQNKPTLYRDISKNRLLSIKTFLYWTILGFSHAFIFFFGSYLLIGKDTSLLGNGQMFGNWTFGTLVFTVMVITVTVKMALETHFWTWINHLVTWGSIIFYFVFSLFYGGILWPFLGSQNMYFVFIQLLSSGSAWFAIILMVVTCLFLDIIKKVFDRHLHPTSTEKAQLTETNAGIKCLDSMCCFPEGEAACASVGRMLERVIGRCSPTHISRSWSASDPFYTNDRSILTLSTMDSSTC
UniProt O75348, whole entry, looked up: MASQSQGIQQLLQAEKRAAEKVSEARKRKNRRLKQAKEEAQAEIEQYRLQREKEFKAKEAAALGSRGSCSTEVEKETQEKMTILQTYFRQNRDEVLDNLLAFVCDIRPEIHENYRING
UniProt P36543, whole entry, looked up: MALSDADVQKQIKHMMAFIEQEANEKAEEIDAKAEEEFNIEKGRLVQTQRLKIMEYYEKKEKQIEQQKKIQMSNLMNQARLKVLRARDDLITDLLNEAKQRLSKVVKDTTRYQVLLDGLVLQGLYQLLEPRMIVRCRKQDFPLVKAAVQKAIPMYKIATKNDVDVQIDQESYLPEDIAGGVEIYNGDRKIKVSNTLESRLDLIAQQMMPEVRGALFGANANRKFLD
UniProt P56385: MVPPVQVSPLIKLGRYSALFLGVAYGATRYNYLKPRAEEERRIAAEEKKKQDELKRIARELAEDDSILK

Experiments:
Assay in all cases: log2 fold change, soluble protein after heating vs DMSO (PISA); higher = thermal stabilisation; K562 cells, 10 uM, 30 min; active = over 0.2 and 3.5 SD of the protein, either way, in both replicates (recomputed)
[1] = compound: COC1=CC=C(C=C1)CN2C=CC3=C2C=C(C=C3)C(=O)NO
Method in brief: (§1)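 Values are thermal stability changes relative to control samples and are taken from duplicates. They are stated as log2 fold changes. Before quantification by TMTpro 16plex LC-MS/MS with equalised channel sums, K562 cells at 2×10^6 cells/mL were treated with 10 μM compound for 30 min, heated in aliquots for 3 min across 48°C-58°C, pooled, extracted in PBS with 0.5% NP-40 at 4°C, and centrifuged at 21,000xg for 90 min to give the soluble supernatant.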

[2] = compound: CON(C)C(=O)N1N=C(c2cc(F)ccc2F)S[C@@]1(CCCN)c1ccccc1 [filanesib]
Method in brief: as §1

[3] = compound: CO[C@H]1C[C@@H]2CC[C@@H](C)[C@@](O)(O2)C(=O)C(=O)N2CCCC[C@H]2C(=O)O[C@H]([C@H](C)C[C@@H]2CC[C@H](n3cnnn3)[C@H](OC)C2)CC(=O)[C@H](C)/C=C(\C)[C@@H](O)[C@@H](OC)C(=O)[C@H](C)C[C@H](C)/C=C/C=C/C=C/1C [zotarolimus]
Method in brief: as §1

[4] = compound: COc1cc(C(=O)O)ccc1NC(=O)[C@@H]1N[C@@H](CC(C)(C)C)[C@](C#N)(c2ccc(Cl)cc2F)[C@H]1c1cccc(Cl)c1F [idasanutlin]
Method in brief: as §1

[5] = compound: COc1cc(Nc2ncc3c(n2)-c2ccc(Cl)cc2C(c2c(F)cccc2OC)=NC3)ccc1C(=O)O [alisertib]
Method in brief: as §1

[6] = compound: COc1cc2nc(-c3cc(F)ccc3O)nc(N[C@@H]3CNC[C@H]3C(C)(C)O)c2cc1OC
Method in brief: as §1

[7] = compound: COc1cc2ncnc(Nc3ccc(F)c(Cl)c3)c2cc1OCCCN1CCOCC1 [gefitinib]
Method in brief: as §1

[8] = compound: COc1cccc2cc(-c3nc([C@H]4CC[C@H](C(=O)O)CC4)n4ncnc(N)c34)[nH]c12
Method in brief: as §1

[9] = compound: CS(=O)(=O)CCNCc1ccc(-c2ccc3ncnc(Nc4ccc(OCc5cccc(F)c5)c(Cl)c4)c3c2)o1 [lapatinib]
Method in brief: as §1

[10] = compound: CS(=O)(=O)N1CCN(Cc2cc3nc(-c4cccc5[nH]ncc45)nc(N4CCOCC4)c3s2)CC1 [pictilisib]
Method in brief: as §1

Measured: log2 fold change

ASF1B (UniProt Q9NVP2)
inactive: [1] -0.129 | [2] 0.359 | [3] 0.04 | [4] -0.101 | [5] 0.656 | [6] 0.094 | [7] 0.004 | [8] -0.301 | [9] -0.105 | [10] -0.143

ASPM (UniProt Q8IZT6)
inactive: [1] -0.03 | [2] -0.075 | [3] 0.068 | [4] 0.095 | [5] 0.009 | [6] 0.017 | [7] 0.019 | [8] -0.051 | [9] 0.015 | [10] -0.117

ARRB2 isoform 4 (UniProt P32121)
inactive: [1] -0.103 | [2] -0.048 | [3] 0.009 | [4] -0.012 | [5] -0.073 | [6] 0.085 | [7] 0.009 | [8] 0.066 | [9] -0.028 | [10] 0.068

ARNT (UniProt P27540)
inactive: [1] -0.095 | [2] -0.003 | [3] 0.096 | [4] -0.005 | [5] 0.018 | [6] 0.001 | [7] 0.042 | [8] -0.12 | [9] -0.014 | [10] 0.032

ATP1B3 (UniProt P54709)
inactive: [1] 0.082 | [2] 0.073 | [3] -0.034 | [4] 0.014 | [5] -0.032 | [6] 0.034 | [7] 0.025 | [8] 0.092 | [9] -0.051 | [10] -0.012

ARL6IP4 (UniProt Q66PJ3)
inactive: [1] -0.025 | [2] 0.023 | [3] 0.014 | [4] 0.172 | [5] -0.053 | [6] 0.002 | [7] -0.039 | [8] 0.05 | [9] -0.023 | [10] -0.007

ARRB1 (UniProt P49407)
inactive: [1] -0.016 | [2] -0.032 | [3] 0.07 | [4] -0.056 | [5] 0 | [6] 0.019 | [7] 0.013 | [8] 0.02 | [9] -0.022 | [10] 0.064

ATP5MPL (UniProt P56378)
inactive: [1] 0.017 | [2] 0.105 | [3] -0.043 | [4] -0.003 | [5] -0.052 | [6] 0.09 | [7] 0.052 | [8] 0.047 | [9] 0.097 | [10] 0.124

ATP5F1A (UniProt P25705)
inactive: [1] -0.052 | [2] -0.026 | [3] -0.042 | [4] 0.021 | [5] -0.03 | [6] -0.005 | [7] 0.002 | [8] 0.05 | [9] -0.003 | [10] -0.03

ATP6V0A2 (UniProt Q9Y487)
inactive: [1] -0.029 | [2] -0.083 | [3] 0.011 | [4] 0.004 | [5] -0.082 | [6] -0.07 | [7] -0.058 | [8] -0.056 | [9] 0.016 | [10] -0.071

ATM (UniProt Q13315)
inactive: [1] -0.031 | [2] -0.062 | [3] 0 | [4] -0.118 | [5] -0.016 | [6] 0.061 | [7] 0.01 | [8] 0.003 | [9] 0.131 | [10] -0.02

2 records drawn at random from the list so far:
ARRB1 (UniProt P49407)
inactive: [1] -0.016 | [2] -0.032 | [3] 0.07 | [4] -0.056 | [5] 0 | [6] 0.019 | [7] 0.013 | [8] 0.02 | [9] -0.022 | [10] 0.064

ATP6V0A2 (UniProt Q9Y487)
inactive: [1] -0.029 | [2] -0.083 | [3] 0.011 | [4] 0.004 | [5] -0.082 | [6] -0.07 | [7] -0.058 | [8] -0.056 | [9] 0.016 | [10] -0.071

Following part

ATG2A isoform 3 (UniProt Q2TAZ0)
inactive: [1] -0.024 | [2] 0.001 | [3] -0.013 | [4] -0.037 | [5] -0.055 | [6] 0.034 | [7] -0.011 | [8] 0.042 | [9] 0.011 | [10] 0.092

ATP5MD (UniProt Q96IX5)
inactive: [1] -0.06 | [2] 0.031 | [3] -0.013 | [4] 0.11 | [5] -0.148 | [6] -0.033 | [7] 0 | [8] 0.03 | [9] 0 | [10] 0.004

ATP2B1 isoform 1 (UniProt P20020)
inactive: [1] -0.003 | [2] 0.073 | [3] -0.046 | [4] -0.021 | [5] -0.042 | [6] 0.102 | [7] 0.024 | [8] 0.068 | [9] -0.01 | [10] 0.048

ASNA1 (UniProt O43681)
inactive: [1] 0.044 | [2] -0.053 | [3] 0.013 | [4] -0.052 | [5] -0.045 | [6] -0.033 | [7] 0 | [8] 0.071 | [9] -0.001 | [10] 0.041

ARPC3 (UniProt O15145)
inactive: [1] -0.006 | [2] 0.056 | [3] 0 | [4] 0.022 | [5] -0.037 | [6] -0.002 | [7] 0.001 | [8] 0.129 | [9] 0.011 | [10] 0.073

ARL3 (UniProt P36405)
inactive: [1] 0 | [2] -0.017 | [3] -0.006 | [4] -0.062 | [5] -0.076 | [6] -0.007 | [7] -0.018 | [8] 0.047 | [9] -0.03 | [10] 0.031

ARL2 (UniProt P36404)
inactive: [1] -0.069 | [2] -0.089 | [3] -0.029 | [4] -0.113 | [5] 0.003 | [6] 0.07 | [7] 0.015 | [8] 0.049 | [9] -0.072 | [10] 0.005

ARL15 (UniProt Q9NXU5)
inactive: [1] 0.11 | [2] -0.008 | [3] -0.031 | [4] -0.019 | [5] 0.052 | [6] -0.03 | [7] -0.009 | [8] 0.055 | [9] 0.031 | [10] 0.101

ARL6IP6 (UniProt Q8N6S5)
inactive: [1] -0.113 | [2] -0.014 | [3] -0.03 | [4] -0.088 | [5] 0.004 | [6] -0.042 | [7] -0.021 | [8] 0.036 | [9] 0.004 | [10] 0.005

ARMC6 (UniProt Q6NXE6)
inactive: [1] -0.017 | [2] 0.222 | [3] 0.12 | [4] 0.19 | [5] -0.073 | [6] -0.088 | [7] 0.014 | [8] -0.164 | [9] 0.083 | [10] -0.02

ATL3 (UniProt Q6DD88)
inactive: [1] -0.022 | [2] -0.066 | [3] 0.044 | [4] -0.119 | [5] -0.014 | [6] 0.018 | [7] -0.026 | [8] 0.05 | [9] -0.009 | [10] -0.016

ATP11B (UniProt Q9Y2G3)
inactive: [1] -0.043 | [2] 0.041 | [3] -0.041 | [4] -0.055 | [5] -0.041 | [6] -0.021 | [7] -0.022 | [8] 0.141 | [9] 0.019 | [10] 0.064

ATP6V1G1 (UniProt O75348)
inactive: [1] -0.03 | [2] -0.006 | [3] 0.012 | [4] 0.023 | [5] -0.158 | [6] -0.035 | [7] -0.084 | [8] -0.087 | [9] -0.018 | [10] 0.041

ATF7 isoform 6 (UniProt P17544)
inactive: [1] 0.04 | [2] 0.417 | [3] 0.03 | [4] 0.084 | [5] -0.007 | [6] -0.004 | [7] 0.09 | [8] 0.09 | [9] 0.121

ARL6IP1 (UniProt Q15041)
inactive: [1] 0.122 | [2] -0.131 | [3] 0.04 | [4] -0.026 | [5] -0.017 | [6] -0.045 | [7] -0.013 | [8] 0.062 | [9] -0.002 | [10] -0.064

ATP6V1E1 (UniProt P36543)
inactive: [1] -0.082 | [2] -0.007 | [3] 0.054 | [4] -0.015 | [5] -0.011 | [6] -0.091 | [7] -0.134 | [8] -0.041 | [9] -0.046 | [10] 0.012

ATP5ME (UniProt P56385)
inactive: [1] -0.023 | [2] -0.053 | [3] 0.002 | [4] -0.024 | [5] -0.027 | [6] -0.04 | [7] 0.021 | [8] 0.063 | [9] -0.001 | [10] 0.019

ATP6V1A (UniProt P38606)
inactive: [1] -0.035 | [2] -0.013 | [3] -0.003 | [4] 0.036 | [5] -0.053 | [6] -0.085 | [7] -0.099 | [8] -0.015 | [9] -0.021 | [10] 0

ATP2C1 isoform 7 (UniProt P98194)
inactive: [1] -0.019 | [2] -0.02 | [3] -0.06 | [4] -0.085 | [5] -0.038 | [6] -0.039 | [7] 0.052 | [8] 0.036 | [9] 0.007 | [10] 0.1
